No constants are given. Whether binding was seen depends on the method and setting. In cells and extracts the contact can be indirect. Here binding means that the protein was enriched with, or labelled near, the bait; the list need not be complete. Where a sequence is shown, tags or fusion partners need not be part of it.
These substances were tested against T1, FLAG-tagged HPV8-E7 (pCMV2-HPV8-E7-FLAG), in C33a cells (human papillomavirus type 8 (HPV8)) (UniProt P06430) (assay: affinity purification with mass spectrometry; Co-IP of FLAG-tagged HPV8-E7 from transfected C33a cells, bound cellular proteins by LC-MS/MS (LFQ); cut-off more than twofold and p < 0.05).
T1 sequence: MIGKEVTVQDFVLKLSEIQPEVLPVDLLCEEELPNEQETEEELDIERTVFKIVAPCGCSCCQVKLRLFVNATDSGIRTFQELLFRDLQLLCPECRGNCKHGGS

The chains behind the UniProt entries cited, without tags or fusion partners. Residues count along the entry.
UniProt P25705, residues 44-553: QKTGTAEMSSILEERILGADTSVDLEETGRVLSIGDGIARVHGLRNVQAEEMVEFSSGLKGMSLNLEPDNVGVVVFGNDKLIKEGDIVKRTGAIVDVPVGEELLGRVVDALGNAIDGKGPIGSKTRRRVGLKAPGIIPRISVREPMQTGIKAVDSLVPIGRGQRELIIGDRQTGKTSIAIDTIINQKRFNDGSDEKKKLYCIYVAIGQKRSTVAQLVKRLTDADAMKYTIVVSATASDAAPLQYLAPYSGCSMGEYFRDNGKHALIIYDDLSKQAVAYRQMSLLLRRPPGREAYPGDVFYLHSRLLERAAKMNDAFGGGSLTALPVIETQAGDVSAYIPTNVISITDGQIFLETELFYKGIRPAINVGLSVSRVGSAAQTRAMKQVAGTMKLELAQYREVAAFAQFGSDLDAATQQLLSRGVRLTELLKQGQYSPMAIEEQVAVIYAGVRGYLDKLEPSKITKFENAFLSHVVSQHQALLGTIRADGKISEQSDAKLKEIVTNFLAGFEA
UniProt P24539, residues 43-256: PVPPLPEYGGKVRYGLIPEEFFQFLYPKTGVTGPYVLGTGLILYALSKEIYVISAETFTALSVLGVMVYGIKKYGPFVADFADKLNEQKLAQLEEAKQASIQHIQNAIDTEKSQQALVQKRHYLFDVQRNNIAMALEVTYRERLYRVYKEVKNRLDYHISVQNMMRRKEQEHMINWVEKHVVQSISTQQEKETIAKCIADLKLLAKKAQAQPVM
UniProt O75964: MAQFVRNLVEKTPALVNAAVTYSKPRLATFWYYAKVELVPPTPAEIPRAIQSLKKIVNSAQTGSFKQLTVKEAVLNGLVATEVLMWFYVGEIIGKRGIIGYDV

For “ATP5A1, subunit of the mitochondrial ATP synthase, in C33a cells (from UniProt P25705 44-553)”, which binding is on record?
The binding was “binds”.

“ATP5B, beta subunit of the mitochondrial ATP synthase, in C33a cells (from UniProt P06576 48-529)” was tested. Which binding did it give?
The binding was “binds”.

With “ATP5F1, subunit of the mitochondrial ATP synthase, in C33a cells (from UniProt P24539 43-256)” as the substance, how does the binding read?
The binding was “binds”.

How did the binding turn out when “ATP5L, subunit of the mitochondrial ATP synthase, in C33a cells (from UniProt O75964 1-103)” was run?
The binding was “binds”.
